{
  "source": "PubChem BioAssay AID504834",
  "about": "(National Center for Advancing Translational Sciences (NCATS), 2011)",
  "note": "About 22,000 (6.9%) of roughly 320,000 compounds were called active. The shares of active, inactive and inconclusive entries below differ from those in the screen. The call rests on the fitted dose curve; in most records, active means well fitted inhibition curve with a large enough effect; inconclusive means small, poorly fitted or top-dose-only effect, or another doubt; inactive means no such curve, though single readings can be large or run the other way. Potencies of inconclusive entries are doubtful fits and often do not repeat. On the % scale 0 is the no-effect control and ±100 the full control effect; potency means the concentration at half of the fitted maximal effect.",
  "data": [
    {"experiment": "Primary qHTS for delayed death inhibitors of the malarial parasite plastid, 96 hour incubation", "conditions": "P. falciparum luciferase reporter growth; series mostly up to 28.7 µM", "procedure,_shortened": "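Erythrocytes infected with luciferase-expressing P. falciparum were dispensed at 2% hematocrit and 0.05% parasitemia (final), then incubated with compounds 96 hours at 37 C in 5% CO2. Luminescence after detection reagent addition reported growth.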", "values": [
      {"smiles": "COc1cccc(CNC(=O)c2csc3c2CCCC3)c1", "Potency": "inactive"},
      {"smiles": "O=C(NCC(=O)N(Cc1ccccc1)C(C(=O)NC1CCCC1)c1cccnc1)c1ccco1", "note": "(stereo not given)", "Potency": "active: 16.5 µM"},
      {"smiles": "CCCNS(=O)(=O)c1ccc(OCC(=O)N2CCN(Cc3ccccc3)CC2)cc1", "Potency": "inconclusive: 18.5 µM [inhibitor, partial curve, poor fit]"},
      {"smiles": "CC1(C)C(C=C(Cl)Cl)C1C(=O)N/N=C/c1ccccc1F", "note": "(stereo not given)", "Potency": "inactive"},
      {"smiles": "CCn1cc(C(=O)Nc2ccc(C)c([N+](=O)[O-])c2)cn1", "Potency": "inactive"},
      {"smiles": "C=Cc1ccc(C(=O)NC2CCCN(Cc3ccccc3F)C2)cc1", "note": "(stereo not given)", "Potency": "inconclusive: 14.7 µM [inhibitor, single point]"},
      {"smiles": "CC1=NN(C(=O)c2ccccc2)C(O)(c2ccc(Br)cc2)C1", "note": "(stereo not given)", "Potency": "active: 3.7 µM"},
      {"smiles": "O=C(C1=C[C@H](C2CCCCC2)C[C@H](OCCCCO)O1)N1CCN(Cc2ccc3c(c2)OCO3)CC1", "Potency": "active: 5.86 µM"},
      {"smiles": "COc1ccccc1OCC(=O)Nc1ccc(S(=O)(=O)Nc2cc(C)on2)cc1", "Potency": "inconclusive: 2.62 µM [inhibitor, full curve, poor fit]"},
      {"smiles": "Cc1cccc(NC(=O)C(c2ccccc2Cl)N2CCOCC2)c1", "note": "(stereo not given)", "Potency": "active: 14.7 µM"},
      {"smiles": "CCCOc1ccc(/C(O)=C2/C(=O)C(=O)N(CCOC)C2c2cccnc2)cc1", "note": "(stereo not given)", "Potency": "inconclusive: 14.7 µM [inhibitor, single point]"},
      {"smiles": "CN(CC(=O)NCc1ccccc1Cl)CC(=O)Nc1cccc(F)c1", "Potency": "inconclusive: 16.5 µM [inhibitor, single point]"},
      {"smiles": "CC(C)C[C@@H](CO)N(Cc1ccccc1)S(=O)(=O)N(Cc1ccccc1)[C@@H](CO)CC(C)C", "Potency": "active: 2.62 µM"},
      {"smiles": "Cc1ccc2nc(C)cc(Cl)c2c1", "Potency": "inconclusive: 18.5 µM [inhibitor, single point]"},
      {"smiles": "Cc1cc(C)cc(Oc2nc3c(C)cccn3c(=O)c2/C=C(\\C#N)C(=O)NC2CCS(=O)(=O)C2)c1", "note": "(stereo not given)", "Potency": "active: 11.7 µM"},
      {"smiles": "O=C(Nc1ccccc1)C(=O)c1cn(CC(=O)N2CCCCC2)c2ccccc12", "Potency": "active: 10.4 µM"},
      {"smiles": "COc1ccc(-n2nc(C(=O)NCC(=O)NC3CCCCCC3)c3ccccc3c2=O)cc1OC", "Potency": "inconclusive: 4.65 µM [inhibitor, single point]"},
      {"smiles": "COc1ccccc1C(=O)C1CCCN(C(=O)c2ccco2)C1", "note": "(stereo not given)", "Potency": "inconclusive: 11.7 µM [inhibitor, single point]"},
      {"smiles": "COc1ccc(NC(=O)c2ccc(-n3nc(C)cc3C)cc2)cc1OC", "Potency": "inactive"},
      {"smiles": "CCOc1cc2[nH]c(=S)n(CCCOC)c(=O)c2cc1OCC", "Potency": "active: 6.57 µM"},
      {"smiles": "Fc1ccc(-c2nc3c(-c4ccccc4)cnn3cc2CCN2CCOCC2)cc1", "Potency": "inconclusive: 9.28 µM [inhibitor, single point]"},
      {"smiles": "Cc1ccc(S(=O)(=O)NCCSC(C)(C)C)cc1", "Potency": "inactive"},
      {"smiles": "O=C(c1ccccc1NS(=O)(=O)c1ccc(F)cc1)N1CCCC1", "Potency": "inconclusive: 18.5 µM [inhibitor, single point]"},
      {"smiles": "CCOC(=O)c1cnc2ccccc2c1NCCO", "Potency": "inconclusive: 18.5 µM [inhibitor, single point]"},
      {"smiles": "NC(=O)c1cc(N)ccc1N1CCCCC1", "Potency": "inactive"},
      {"smiles": "COc1cc(OC)cc(-c2nnc(SCc3c(F)cccc3Cl)o2)c1", "Potency": "inconclusive: 18.5 µM [inhibitor, single point]"},
      {"smiles": "COc1ccc(-c2noc(C(C)n3nc(C)c([N+](=O)[O-])c3C)n2)cc1OC", "note": "(stereo not given)", "Potency": "inconclusive: 18.5 µM [inhibitor, single point]"},
      {"smiles": "CCOP(=O)(c1ccccc1)c1nc(-c2ccc(F)cc2)oc1N1CCCCC1", "note": "(stereo not given)", "activity change, negative = inhibition": "inactive: -6.42% [at 5.75 µM]"},
      {"smiles": "Cc1sc(NC(=O)c2cccnc2)nc1-c1ccccc1", "Potency": "inconclusive: 18.5 µM [inhibitor, single point]"},
      {"smiles": "CCCCCCSc1cc(-c2nc3ccc(C)cn3c2NCc2ccccc2)ccc1OC", "Potency": "active: 10.4 µM"},
      {"smiles": "CC(=O)CC1=NC(C)(C)Cc2ccccc21", "Potency": "inconclusive: 10.4 µM [inhibitor, single point]"},
      {"smiles": "Cc1ccc(CONS(=O)(=O)c2cc(C)ccc2C)cc1", "Potency": "inconclusive: 18.5 µM [inhibitor, single point]"},
      {"smiles": "CCc1cc2c(=O)c(-c3nc4ccccc4n3C)c(C(C)C)oc2c(CN2CCN(C)CC2)c1O", "Potency": "inconclusive: 14.7 µM [inhibitor, partial curve, poor fit]"},
      {"smiles": "N/C(=N\\OC(=O)Cc1ccc([N+](=O)[O-])cc1)c1ccc([N+](=O)[O-])cc1", "Potency": "inconclusive: 9.28 µM [inhibitor, partial curve]"},
      {"smiles": "O=C(N/N=C/c1ccc2ncccc2c1)c1cc(-c2cccs2)nc2ccccc12", "Potency": "inconclusive: 18.5 µM [inhibitor, single point]"},
      {"smiles": "COc1ccc(-c2csc(N(CC(C)C)C(=O)c3ccco3)n2)cc1", "Potency": "inactive"},
      {"smiles": "Cc1c(S(=O)(=O)Nc2ccc(Oc3ccccc3)cc2)c(=O)n(C)c(=O)n1C", "Potency": "inactive"},
      {"smiles": "CCOC(=O)C1(CCOC)CCN(Cc2ccc(C3CCCCO3)s2)CC1", "note": "(stereo not given)", "Potency": "inconclusive: 13.1 µM [inhibitor, single point]"},
      {"smiles": "Cc1ccc(C)c(CN2C(=O)CSc3ccc(C(=O)NCCN4CCOCC4)cc32)c1", "Potency": "inconclusive: 16.5 µM [inhibitor, single point]"},
      {"smiles": "CC(C)C12CN3CC(C(C)C)(CN(C1)C3c1ccco1)C2=O", "note": "(stereo not given)", "Potency": "inconclusive: 18.5 µM [inhibitor, single point]"},
      {"smiles": "CC(C)c1ccc(CNc2cc(N3CCCC3)ccc2[N+](=O)[O-])cc1", "Potency": "inconclusive: 11.7 µM [inhibitor, single point]"},
      {"smiles": "CCc1ccc(OCC(=O)NCC(c2ccc(Cl)cc2)N2CCCCC2)cc1", "note": "(stereo not given)", "Potency": "inactive"},
      {"smiles": "COc1ccccc1C(=O)COC(=O)COc1cccc2c1OC(C)(C)C2", "Potency": "inconclusive: 18.5 µM [inhibitor, single point]"},
      {"smiles": "CCCCN1CC(=O)N2[C@H]3c4cc(Cl)ccc4OC[C@@H]3[C@H](C(=O)OCC)[C@]2(C)C1=O", "Potency": "inconclusive: 4.65 µM [inhibitor, partial curve, poor fit]"},
      {"smiles": "CCC(C(=O)Nc1cccnc1Cl)c1ccccc1", "note": "(stereo not given)", "Potency": "inconclusive: 0.522 µM [inhibitor, partial curve, poor fit]"}
    ]}
  ]
}
